Measured values taken from PubChem BioAssay AID1671190 (National Center for Advancing Translational Sciences (NCATS), 2021).
Where “and” joins values, the source holds several entries; their conditions need not be identical. Equal entries are not always repeated. Hit rate of the full screen: of about 580,000 compounds, about 6,100 (1.1%) were called active. Inconclusive means that the source gave no clear call. Such entries were picked first, then a sample of the others. Calls come from the whole dose curve; as a rule, active = well fitted inhibition curve with a large enough effect; inconclusive = small, poorly fitted or top-dose-only effect, or another doubt; inactive = no such curve, though single readings can be large or run the other way. Potencies of inconclusive entries are doubtful fits and often do not repeat.

The chains behind the UniProt entries cited, without tags or fusion partners.
UniProt P18054, whole entry, looked up: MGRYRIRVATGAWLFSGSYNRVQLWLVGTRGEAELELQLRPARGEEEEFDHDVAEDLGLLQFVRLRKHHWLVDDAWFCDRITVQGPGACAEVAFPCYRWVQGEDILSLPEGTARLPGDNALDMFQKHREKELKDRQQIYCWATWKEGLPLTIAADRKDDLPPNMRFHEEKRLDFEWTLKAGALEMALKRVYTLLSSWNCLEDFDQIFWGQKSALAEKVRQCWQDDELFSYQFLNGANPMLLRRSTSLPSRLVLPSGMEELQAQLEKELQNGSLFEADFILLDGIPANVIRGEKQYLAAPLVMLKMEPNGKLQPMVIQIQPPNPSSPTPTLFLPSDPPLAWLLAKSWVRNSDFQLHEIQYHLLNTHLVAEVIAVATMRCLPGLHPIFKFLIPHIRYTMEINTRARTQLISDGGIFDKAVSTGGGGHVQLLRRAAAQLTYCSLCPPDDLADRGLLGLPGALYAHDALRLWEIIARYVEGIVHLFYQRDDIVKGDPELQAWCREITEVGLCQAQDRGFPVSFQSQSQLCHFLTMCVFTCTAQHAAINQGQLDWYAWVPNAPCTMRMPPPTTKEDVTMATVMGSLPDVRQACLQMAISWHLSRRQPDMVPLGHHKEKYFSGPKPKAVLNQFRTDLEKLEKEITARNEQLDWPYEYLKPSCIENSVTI

These molecules were tested against Polyunsaturated fatty acid lipoxygenase ALOX12 (Homo sapiens) (UniProt P18054) (assay: Primary qHTS assay for inhibitors of human arachidonate 12S-lipoxygenase (ALOX12): Round 2). Settings: purified 12hLO, xylenol orange hydroperoxide absorbance; activity change, negative = inhibition: at 108 µM (top of the series) unless noted.
Procedure, shortened: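 Purified human 12hLO at 150 nM in 25 mM Hepes, 0.01% Triton X-100, pH 7.0, preincubated 15 min at room temperature with compound. Reaction started with 40 uM arachidonic acid, 30 min at room temperature. Hydroperoxide measured by Fe-xylenol orange, 573/405 nm absorbance ratio.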
% is set by controls: 0 for no effect and ±100 for the full control effect; potency is the fitted concentration of half-maximal effect.

Row | SMILES | activity change, negative = inhibition | Potency
1 | N#Cc1cccc(CN2CC[C@@H]3OCC(=O)N(Cc4ccccc4)[C@H]3CC2)c1 | inactive: -4.97% [at 176 µM] | –
2 | COc1ccc2cc(CN(CCc3ccccc3)Cc3nnnn3Cc3ccco3)c(=O)[nH]c2c1 | – | inconclusive: 50.1 µM [inhibitor, single point]
3 | Cc1ccc(NS(=O)(=O)c2c(C)[nH]c(C)c2C(=O)N2CCCCC2)cc1F | – | inconclusive: 56.2 µM [inhibitor, partial curve, poor fit]
4 | O=S1(=O)CC(N2CCC(Cc3ccccc3)CC2)CN1Cc1ccc(F)cc1 (stereo not drawn) | – | inconclusive: 39.8 µM [inhibitor, partial curve, poor fit]
5 | CSc1ncccc1C(=O)Nc1cccc(S(=O)(=O)N2CCCCCC2)c1 | – | inconclusive: 141 µM [inhibitor, single point]
6 | CC(=O)C1=C(c2ccc(OC(F)F)cc2)N(C(C)=O)n2c(nnc2-c2ccccc2)S1 | – | inconclusive: 31.6 µM [inhibitor, single point]
7 | COC(=O)c1ccc(CSCc2ccc(C(=O)OC)o2)o1 | – | inconclusive: 100 µM [inhibitor, single point]
8 | CCN(CC)C(=O)c1ccc(-n2nc(C)c(-c3ccc(C)cc3)c2NC(C)=O)cc1 | inconclusive: -32.7% [inhibitor] | –
9 | O=C1C(Nc2ccccc2)=C(NS(=O)(=O)c2ccccc2)C(=O)c2ccccc21 | inactive: 1.27% | –
10 | COC(=O)CNC(=O)c1cc(C)cc(C)c1 | – | inconclusive: 282 µM [inhibitor, partial curve, poor fit]
11 | O=C(COC(=O)c1sc2ccccc2c1Cl)Nc1ncc(Cl)cc1Cl | – | inconclusive: 31.6 µM [inhibitor, partial curve]
12 | c1ccc(CN2CCN(CCOCCOc3ccc4c(c3)CCC4)CC2)cc1 | – | active: 50.1 µM
13 | COc1ccc(C(=O)N2CC(=O)Nc3ccc(C)cc3C2c2ccccc2)c(OC)c1 (stereo not drawn) | – | inconclusive: 100 µM [inhibitor, single point]
14 | Cc1ccc(S(=O)(=O)Cc2noc([C@@H]3C[C@@H](O)CN3Cc3cccs3)n2)cc1 | – | inconclusive: 44.7 µM [inhibitor, full curve, poor fit]
15 | CCCNC1(Cc2cc(C(=O)N3CCCCC3)on2)COC1 | – | inconclusive: 79.4 µM [inhibitor, partial curve]
16 | CCCCCCCn1c(SCCC(=O)O)nc2c1c(=O)[nH]c(=O)n2C | – | inconclusive: 17.8 µM [inhibitor, full curve, poor fit]
17 | COc1ccccc1NC(=S)N(Cc1ccc(C)cc1)Cc1cccnc1 | – | inconclusive: 89.1 µM [inhibitor, single point]
18 | O=C(Cc1ccc(S(=O)(=O)N2CCOCC2)s1)Nc1cc(C(F)(F)F)ccc1N1CCCC1 | – | inconclusive: 28.2 µM [inhibitor, partial curve, poor fit]
19 | O=C(NCCC(F)(F)F)C1=CN2CCN(Cc3cccc(Cl)c3)C(=O)N=C2O1 | inactive: 24.3% | –
20 | Cc1cc(-c2n[nH]c(=S)n2-c2ccccc2C)cs1 | – | inconclusive: 50.1 µM [inhibitor, partial curve, poor fit]
21 | CC(C)(C)c1ccc(C(=O)N(c2ccc(Cl)cc2)C2C=CS(=O)(=O)C2)cc1 (stereo not drawn) | – | inconclusive: 100 µM [inhibitor, single point]

Row | SMILES | activity change, negative = inhibition | Potency
22 | CC/C(=N\Nc1ccccc1[N+](=O)[O-])c1ccc(O)cc1 | – | inconclusive: 50.1 µM [inhibitor, partial curve, poor fit]
23 | CC(=O)Nc1ccc(NC(=S)NC(NC(=O)c2cccc(C)c2)C(Cl)(Cl)Cl)cc1 (stereo not drawn) | – | inconclusive: 17.8 µM [inhibitor, partial curve, poor fit]
24 | COc1ccc(-c2nc3ccc(Br)cn3c2Cc2ccsc2)cc1OC | – | inconclusive: 50.1 µM [inhibitor, partial curve, poor fit]
25 | CC(C)CN1CC[C@@]2(CCCN(C(=O)c3cccc(F)c3)C2)C1 | – | inconclusive: 31.6 µM [inhibitor, single point]
26 | Cc1nnc(NC(=O)CCS(=O)(=O)Cc2ccccc2)s1 | – | inactive and inconclusive: 89.1 µM [inhibitor, partial curve, poor fit]
27 | CC1=CCC(C(C)C)C=C1 (stereo not drawn) | – | inconclusive: 70.8 µM [inhibitor, partial curve, poor fit]
28 | CN(C)Cc1ccccc1-c1ccc2ncnc(NC3CCNCC3)c2c1 | – | inconclusive: 3.98 µM [inhibitor, full curve, poor fit]
29 | O=C(O)c1ccc(-n2ncc3c2/C(=C\c2cccc([N+](=O)[O-])c2)CC3)cc1 | – | inconclusive: 50.1 µM [inhibitor, single point]
30 | CN(c1ccc(-c2csc(NC(=O)CCCc3nc4ccccc4c(=O)[nH]3)n2)cc1)S(C)(=O)=O | inactive: 3.96% | –
31 | COc1ccc(-c2nn(-c3ccccc3)cc2CN2CCN3CCCC3C2)c(F)c1 (stereo not drawn) | – | inconclusive: 4.47 µM [inhibitor, full curve]
32 | Cc1ccc(C)c(N2C(=N)S/C(=C\c3ccc(-c4ccccc4C(=O)O)o3)C2=O)c1 | – | inconclusive: 14.1 µM [inhibitor, full curve, poor fit]
33 | S=C1NC[C@H](Cc2ccccc2)N1CCCCC1CCCCC1 | – | active: 35.5 µM
34 | COc1ccc(-c2nc(CSCC(=O)NCc3cccnc3)c(C)o2)cc1 | inactive: 41.6% | –
35 | CCOC(=O)c1oc2cc(O)ccc2c(=O)c1-c1ccc2c(c1)OCCO2 | – | inconclusive: 25.1 µM [inhibitor, partial curve, poor fit]
36 | O=C(COC(=O)c1cc(Br)c[nH]1)NCc1ccc(F)cc1 | – | inconclusive: 8.91 µM [inhibitor, full curve]
37 | COCCNC(=O)c1nc(-c2ccc(F)cc2)c2cnccn12 | inactive: 13% [at 176 µM] | –
38 | CC(C)Cc1ccc(CN2CCC(n3nccc3NC(=O)C3CCCC3)CC2)cc1 | – | inconclusive: 63.1 µM [inhibitor, partial curve, poor fit]
39 | Cc1cc(/C=C(/C#N)c2nc3ccccc3[nH]2)c(C)n1-c1ccccc1C(=O)O | – | inconclusive: 56.2 µM [inhibitor, partial curve, poor fit]
40 | CC1=CC(=C(C#N)C#N)c2ccccc2N1C | – | inconclusive: 14.1 µM [inhibitor, partial curve, poor fit]
41 | Cc1cccc(C2CC3(CC(C)(C)NC(=S)N3)Oc3cc(O)ccc32)c1 (stereo not drawn) | – | active: 39.8 µM
42 | COc1ccc2c(c1)c(C(C)=O)c(C)n2CCc1ccccc1 | – | inactive and inconclusive: 112 µM [inhibitor, partial curve, poor fit]

Taken from above:
Potency, COc1ccc(-c2nc3ccc(Br)cn3c2Cc2ccsc2)cc1OC reads inconclusive: 50.1 µM [inhibitor, partial curve, poor fit]
Potency, CC1=CCC(C(C)C)C=C1 (stereo not drawn) reads inconclusive: 70.8 µM [inhibitor, partial curve, poor fit]
Potency, COC(=O)c1ccc(CSCc2ccc(C(=O)OC)o2)o1 reads inconclusive: 100 µM [inhibitor, single point]

More records:

Row | SMILES | activity change, negative = inhibition | Potency
43 | O=C1Nc2ccccc2CN(Cc2ccc(Cl)cc2)C12CCNC2 (stereo not drawn) | – | active: 20 µM
44 | Cc1ccc2c(c1)c1c3n2CCN(CC(N)=O)C3CCC1 (stereo not drawn) | – | inconclusive: 50.1 µM [inhibitor, partial curve, poor fit]
45 | CSc1cccc(NC(=O)c2cccc(Cl)c2Cl)c1 | inactive: -6.92% | –
46 | O=C(NCCN1CCOCC1)c1cccc(NS(=O)(=O)c2ccc(Br)cc2)c1 | – | inconclusive: 39.8 µM [inhibitor, partial curve, poor fit]
47 | COc1ccccc1CNc1nc2cc(-c3ccsc3)sc2c(=O)n1C | inactive: -21.1% | –
48 | CCOC(=O)C1=C(C)NC(=O)NC1c1cccc(Oc2ccc(Cl)cc2)c1 (stereo not drawn) | – | inconclusive: 56.2 µM [inhibitor, partial curve, poor fit]
49 | CC(=O)c1n[nH]nc1Nc1nc(C)cc(C)n1 | – | inconclusive: 2.24 µM [inhibitor, full curve, poor fit]
50 | COCCNC(=O)CCn1c(=O)c2cc(OC)c(OC)cc2n(CC(=O)Nc2ccc(F)c(Cl)c2)c1=O | – | inconclusive: 44.7 µM [inhibitor, partial curve, poor fit]
51 | COc1ccc(C(=O)c2c(N)c(C(=O)Nc3ccccc3C(F)(F)F)c3ccccn23)cc1 | inactive: 16.2% | –
52 | O=C(Nc1nnc(C2CC2)s1)C1Cc2ccccc2CN1S(=O)(=O)c1cccs1 (stereo not drawn) | inactive: 0% | –
53 | Cc1cc(C)c(NC(=O)Cn2c(=O)n(-c3cccc(C(F)(F)F)c3)c(=O)c3c(C)c(C)sc32)c(C)c1 | inactive: -8.54% | –
54 | O=C(COc1ncnc2ccccc12)Nc1ccccc1 | – | inconclusive: 126 µM [inhibitor, single point]
55 | Cc1ccc(CNC(=O)C2(C)CCN2C(=O)Cc2ccc(C(C)(C)C)cc2)cc1 (stereo not drawn) | – | inconclusive: 50.1 µM [inhibitor, partial curve, poor fit]
56 | CCOC(=O)c1cc2cc(C(C)CC)ccc2[nH]1 (stereo not drawn) | – | inconclusive: 89.1 µM [inhibitor, single point]
57 | COc1ccccc1NC(=O)C(Cc1ccccc1)NS(=O)(=O)c1ccc2c(c1)CCN2C(C)=O (stereo not drawn) | – | inconclusive: 126 µM [inhibitor, single point]
58 | CCS(=O)(=O)c1ccc2oc([C@H]3CCN(Cc4ccc(OC)cc4)C3)nc2c1 | inactive: 1.31% [at 176 µM] | –
59 | COc1ccc(-c2sc3cc4c(cc3c2C#CCO)OCO4)cc1 | – | inconclusive: 44.7 µM [inhibitor, partial curve, poor fit]
60 | C=CCOC(=O)/C(=C\C=C\c1ccccc1)NC(=O)c1ccccc1 | – | inconclusive: 50.1 µM [inhibitor, partial curve, poor fit]
61 | CCC(CC)NC(=O)C1CCc2nc(N3CCN(C(=O)C(C)C)CC3)sc2C1 (stereo not drawn) | – | active: 35.5 µM
62 | Cc1cc(C)c(C)c(OCCN2CCOCC2)c1 | – | inconclusive: 100 µM [inhibitor, single point]
63 | Cc1ccc(-c2nnn(CC(=O)N3N=C(c4ccc(Cl)cc4)CC3c3ccco3)n2)cc1 (stereo not drawn) | – | inconclusive: 12.6 µM [inhibitor, partial curve, poor fit]
